Test results from PubChem BioAssay AID2685 (National Center for Advancing Translational Sciences (NCATS), 2010).
Screen size: about 320,000 compounds; about 2,100 (0.66%) were called active. The shares of active, inactive and inconclusive entries below differ from those in the screen. The call rests on the fitted dose curve; in most records, active means well fitted inhibition curve with a large enough effect in the signal ratio, with a control signal flat (not every such curve was filed as active); inconclusive means small, poorly fitted or top-dose-only effect, or effect the other way, or a change in a side signal; inactive means flat fitted curve, though single readings scatter; the % refers to the signal ratio. A potency beside an inconclusive call is a rough fit, not a confirmed value.

Assay: qHTS Assay for Lipid Storage Modulators in Drosophila S3 Cells
Details: BODIPY lipid droplet fluorescence, 18-24 h, cells fed with added oleic acid; lipid storage change, negative = inhibition: at 46.1 µM (top of the series) unless noted
How it was run: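 Laser-scanning cytometry quantifies lipid droplet accumulation (500–530 nm total intensity; droplet/cell object ratio) in oleic acid-fed (400 uM added) Drosophila S3 cells treated with a concentration series. 20 uM Triacsin C defined 100% inhibition.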
On the % scale 0 is the no-effect control and ±100 the full control effect; potency means the concentration at half of the fitted maximal effect.

| SMILES | Potency | lipid storage change, negative = inhibition |
| --- | --- | --- |
| COC(=O)c1ccc(CNC(=O)CCc2c[nH]c3ccccc23)cc1 | inconclusive: 0.58 µM [activator, single point] |  |
| COc1cccc(CN(C)C(=O)C2CCN(S(=O)(=O)c3ccc(C)cc3)CC2)c1OC | inconclusive: 0.411 µM [falling, full curve, poor fit] |  |
| CC(c1ccc(F)cc1)n1c(-c2cccs2)n[nH]c1=S (configuration not stated) |  | inconclusive: 129% |
| Cc1cccc(Cn2c(C)c(C)c3cc(C(=O)NCCN4CCOCC4)ccc32)c1 |  | inconclusive: 103% |
| COc1ccc(/C(N)=N/OC(=O)CSc2ccccc2)cc1OC | inconclusive: 2.31 µM [rising, partial curve] |  |
| Cc1ccc([N+](=O)[O-])cc1N/C=C/C(=O)c1ccco1 | inconclusive: 0.82 µM [falling, single point] |  |
| C/C(=N\NC(=O)Cc1ccccc1)c1ccc(Cl)s1 |  | inconclusive: -5.24% |
| COc1ccc(C(=O)Oc2ccc(F)cc2C(=O)/C=C/c2ccc(OC)c(OC)c2)cc1 | inconclusive: 29.1 µM [falling, single point] |  |
| COC(=O)c1cc(NC(=S)Nc2cc(Cl)cc(Cl)c2)cc(C(=O)OC)c1 |  | inconclusive: 6.23% |
| CCC(c1nnnn1C1CCCCC1)N1CCN(C(=O)c2ccco2)CC1 (configuration not stated) | inconclusive: 2.06 µM [falling, partial curve, poor fit] |  |
| CCC(C)C(Nc1ccc(C(=O)OC)cc1[N+](=O)[O-])C(=O)OC (configuration not stated) |  | inconclusive: 91.7% |
| CCc1ccc(N2CC(C(=O)Nc3ccc(S(=O)(=O)Nc4nccs4)cc3)CC2=O)cc1 (configuration not stated) | inconclusive: 10.3 µM [falling, single point] |  |
| CCn1c(SCC(=O)N(C)C2CCCCC2)nc2cc(S(N)(=O)=O)ccc21 |  | inconclusive: -3.02% |
| O=C(CSc1nnc(Cc2ccccc2)o1)c1ccc(F)cc1 |  | inconclusive: 38.5% |
| CN(C)CCOC(=O)c1ccc2[nH]c3c(c2c1)CSCC3 |  | inconclusive: 12.9% |
| N#Cc1nc(COc2ccccc2F)oc1NCc1ccc(F)cc1 |  | inconclusive: 58.9% |
| C=CCNc1nc(Cl)nc(Nc2ccc(OC)cc2)n1 |  | inconclusive: 8.66% |
| CC1(C)NC(=O)N(CCOc2ccc([N+](=O)[O-])cc2)C1=O |  | inconclusive: 15.7% |
| N#CC(C#N)=Cc1cc2ccccc2nc1N1CCCCC1 |  | inconclusive: -34% |
| CCOC(=O)c1c(NC(=O)c2ccccc2C(=O)O)sc2c1CCC2 |  | inactive |
| O=C1COc2ccc(S(=O)(=O)NCCc3ccc(Cl)cc3)cc2N1 | inconclusive: 0.58 µM [activator, full curve] |  |
| Cc1ccccc1CCN1CCCC(CN(C)CC(C)(C)C)C1 (configuration not stated) |  | inconclusive: -1.82% |
| O=C(Nc1ccc(-n2cnnn2)cc1)c1cccc(S(=O)(=O)N2CCCC2)c1 | inconclusive: 29.1 µM [activator, single point] |  |
| O=C(NC(=S)NNC(=O)c1ccccc1O)c1ccccc1 | inconclusive: 18.4 µM [falling, single point] |  |
| O=C1N(c2ccccc2)CCN1c1ccccc1 | inconclusive: 0.92 µM [activator, full curve] |  |
| CCCCCC(=O)Nc1cc(S(=O)(=O)N2CCOCC2)ccc1N1CCCC1 |  | inconclusive: 36.1% |

| SMILES | Potency | lipid storage change, negative = inhibition |
| --- | --- | --- |
| CC(=O)c1ccc2c(c1)OCCOCCOCCO2 |  | inconclusive: -24.5% |
| Cc1ccc(C)c(NC(=S)N(CCN(C)C)C(C)c2ccccn2)c1 (configuration not stated) |  | inconclusive: -13.1% |
| COCCC(=O)N1CCC(Oc2ccc(C(=O)N3CCCC(COC)C3)cc2)CC1 (configuration not stated) | inconclusive: 13 µM [activator, partial curve] |  |
| Nc1cc(-c2ccc(Br)cc2)nn1S(=O)(=O)c1cccc2nsnc12 |  | inconclusive: -8.61% |
| COc1ccc2cc(CCNC(=O)C(C)C)c(=O)[nH]c2c1 | inconclusive: 8.2 µM [activator, partial curve] |  |
| COc1ccc(C2=NS(=O)(=O)N(C)C(C(=O)NC(C)c3ccccc3)=C2)cc1OC (configuration not stated) | inconclusive: 32.6 µM [falling, single point] |  |
| O=C1CCCC2=C1C1(CCCCC1)N=C(Nc1nc3ccccc3o1)N2 |  | inconclusive: -21.2% |
| CCc1cc[n+](C2=C([O-])c3ccccc3C(=O)/C2=N\S(=O)(=O)c2cccs2)cc1 | active: 1.84 µM |  |
| COc1ccc(CNC(=S)N/N=C(\C)c2ccc(OC)cc2)cc1 |  | inconclusive: 34.7% |
| COCCNC(=O)CN(C(=O)CCC(=O)Nc1ccccn1)c1ccc(F)c(Cl)c1 |  | inconclusive: 23.4% |
| O=c1[nH]n(-c2cccc(Cl)c2)c2ncccc12 |  | inconclusive: 11.2% |
| Cc1nnc(NC(=O)CSc2nnc(CNC(=O)c3ccc(F)cc3)o2)s1 |  | inconclusive: -4.99% |
| COc1ccc(N(C(=O)c2snc(C(N)=O)c2N)C(C(=O)NC2CCCC2)c2cccs2)cc1OC (configuration not stated) | inconclusive: 29.1 µM [falling, single point] |  |
| CC(CC#CCN1CCOCC1)OCCC#N (configuration not stated) |  | inconclusive: 107% |
| O=C(c1ccccc1)N1CCN(S(=O)(=O)N2CCOCC2)CC1 |  | inconclusive: -5.82% |
| CCCCN(Cc1ccco1)C(=O)C1CCCN(c2ncnc3c2nc2n3CCCCC2)C1 (configuration not stated) | inconclusive: 23.1 µM [activator, single point] |  |
| N#Cc1cc2c(cc1NC(=O)CCn1cnnn1)OCO2 |  | inconclusive: 13% |
| Cn1ccnc1SCC(=O)c1cc2ccccc2o1 |  | inconclusive: 59.5% |
| COc1nc(-c2ccccc2)ccc1-c1noc(COc2ccccc2)n1 | inconclusive: 23.1 µM [rising, partial curve] |  |
| Cc1cc(C)c2oc(C(=O)N(Cc3ccccc3)C3CCS(=O)(=O)C3)cc(=O)c2c1 (configuration not stated) |  | inconclusive: 27.9% |
| Cc1ccc2[nH]c(=O)c(CN(Cc3cccs3)C(=S)NCC3CCCO3)cc2c1 (configuration not stated) |  | inconclusive: 15.9% |
| O=C1CCCc2c1cc(-c1ccccc1)n2-c1ccccc1 |  | inconclusive: 37.6% |
| CCc1c(C(=O)NNC(=S)Nc2ccc(S(=O)(=O)Nc3ncccn3)cc2)csc1C |  | inconclusive: -4.59% |
| CCn1nc([N+](=O)[O-])c(C(C#N)c2nc3ccccc3n2C)c(Cl)c1=O (configuration not stated) |  | inconclusive: 24.5% |
| C/C(=N\Nc1nc(C)cc(-c2ccccc2)n1)c1ccc(F)cc1 |  | inconclusive: 0.119% |
| Cc1cc(C)c(S(=O)(=O)Nc2cccc(S(=O)(=O)NC3=NCCC3)c2)c(C)c1 |  | inconclusive: 26% |

3 structures out of the list, arranged by molecular weight, ascending:

| SMILES | Potency | lipid storage change, negative = inhibition |
| --- | --- | --- |
| C/C(=N\Nc1nc(C)cc(-c2ccccc2)n1)c1ccc(F)cc1 |  | inconclusive: 0.119% |
| CCCCN(Cc1ccco1)C(=O)C1CCCN(c2ncnc3c2nc2n3CCCCC2)C1 (configuration not stated) | inconclusive: 23.1 µM [activator, single point] |  |
| COc1ccc(N(C(=O)c2snc(C(N)=O)c2N)C(C(=O)NC2CCCC2)c2cccs2)cc1OC (configuration not stated) | inconclusive: 29.1 µM [falling, single point] |  |

Following part:

| SMILES | Potency | lipid storage change, negative = inhibition |
| --- | --- | --- |
| COc1cccc(/C=N/Nc2nnc(C)n2N)c1OCc1ccccc1Cl | inconclusive: 29.1 µM [falling, single point] |  |
| COC(=O)C1=CO[C@@H](O[C@@H]2O[C@H](CO)[C@@H](O)[C@H](O)[C@H]2O)[C@H]2[C@@H]1C(=O)C[C@@H]2C | inconclusive: 0.146 µM [activator, full curve] |  |
| COc1ccc(C(=O)OCCN=C2NS(=O)(=O)c3ccccc32)cc1OC |  | inconclusive: -76.6% |
| O=S(=O)(NCC1CCCO1)c1ccc(S(=O)(=O)N(Cc2ccc(F)cc2)Cc2ccccn2)cc1 (configuration not stated) |  | inconclusive: 8.43% |
| O=C(O)c1ccccc1NC(=O)c1ccccc1-c1ccccc1C(=O)O | inconclusive: 0.651 µM [activator, partial curve, poor fit] |  |
| CN1CCc2c(sc3c2c(=O)n(-c2ccccc2)c2n[nH]c(=S)n32)C1 |  | inconclusive: 10.4% |
| CCc1nnc(NC(=O)CSc2nc(-c3ccccc3)cc(-c3ccc(OC)cc3)c2C#N)s1 | inconclusive: 2.31 µM [rising, single point] |  |
| COc1ccc(F)cc1S(=O)(=O)N1CCCC(C)C1 (configuration not stated) |  | inconclusive: 20.7% |
| CCOc1ccc(C(=O)NC(C(=O)NCC(c2cccs2)N(C)C)C(C)C)cc1 (configuration not stated) |  | inactive |
| COc1ccccc1-c1cc(C(F)(F)F)nc(NCc2cccs2)n1 |  | inconclusive: 38.5% |
| COc1ccc(C(c2oc(CO)cc(=O)c2O)c2oc(CO)cc(=O)c2O)cc1OC |  | inconclusive: -19.8% |
| CCOc1ccc(CNC23CN4CN(CN(C4)C2)C3)cc1 |  | inconclusive: -30.6% |
| Cc1nc(/N=C\c2ccc(N(C)C)cc2)sc1C |  | inconclusive: 7.79% |
| CCc1nnc(NC(=O)CSc2nc(C)cs2)s1 |  | inconclusive: -11.7% |
| Cc1ccc(S(=O)(=O)NCCn2nc(C)nc2C)cc1 |  | inconclusive: 44.9% |
| Cc1cc(OCC(=O)NCCCn2ccnc2)c2c(C)c(C)c(=O)oc2c1 | active: 13 µM |  |
| CCn1c(=O)c2ccccc2n(Cc2cccc(C)c2)c1=O |  | inconclusive: 32.8% |
| COc1ccccc1C(=O)Nc1ccc(NC(=O)c2ccco2)c(C)c1 |  | inconclusive: -9.55% |
| CN(CC(O)COc1ccccc1F)C1CCCCC1 (configuration not stated) | inconclusive: 35.5 µM [falling, single point] |  |
| CCOC(=O)c1sc(NC(=O)CSc2ncn[nH]2)c(C#N)c1C | inconclusive: 3.26 µM [activator, full curve] |  |
| COC(=O)C1(Cc2cc(-c3cccnc3)no2)CCN(C(=O)OC(C)(C)C)CC1 | inconclusive: 23.1 µM [falling, single point] |  |
| O=C(CN1CCCCC1)Nc1ccc(S(=O)(=O)N2CCCCCC2)cc1 |  | inconclusive: -3.82% |
| Cc1ccc(-n2c(SCC(N)=O)nnc2-c2cccnc2)c(C)c1 |  | inconclusive: 9.48% |
| CCC(C)Sc1cccc(-c2nc3cc(C)ccn3c2NCc2ccccc2)c1 (configuration not stated) |  | inconclusive: -0.138% |
| O=C(NCCn1cccn1)C1CCC(=O)N(CCc2ccccc2)C1 (configuration not stated) |  | inconclusive: 20.9% |
